These are yes or no findings as the source states them, for the method shown. In cells and extracts the contact can be indirect. A yes stands for co-enrichment or nearness to the bait. Other partners may have been found. For some assays here: No binding means not detected with the bait. Sequences can lack the tags named with a protein.
The substances below were run against T1, triple HA-tagged uL5c (chloroplast ribosomal protein uL5c) (Chlamydomonas reinhardtii) (UniProt Q8HTL1) (assay: affinity purification with mass spectrometry; as a1, the control condition alone: cells kept at 25°C, no heat).
T1 sequence: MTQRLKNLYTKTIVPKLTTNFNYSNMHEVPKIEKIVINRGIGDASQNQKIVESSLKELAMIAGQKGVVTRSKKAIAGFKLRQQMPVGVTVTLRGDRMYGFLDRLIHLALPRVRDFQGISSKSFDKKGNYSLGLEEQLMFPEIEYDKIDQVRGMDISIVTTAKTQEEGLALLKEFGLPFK

Sequences of proteins named here, by UniProt entry; tags and fusion partners are left off. A change or cut given only in a name is not applied to a line headed by its entry.
UniProt Q66YD3: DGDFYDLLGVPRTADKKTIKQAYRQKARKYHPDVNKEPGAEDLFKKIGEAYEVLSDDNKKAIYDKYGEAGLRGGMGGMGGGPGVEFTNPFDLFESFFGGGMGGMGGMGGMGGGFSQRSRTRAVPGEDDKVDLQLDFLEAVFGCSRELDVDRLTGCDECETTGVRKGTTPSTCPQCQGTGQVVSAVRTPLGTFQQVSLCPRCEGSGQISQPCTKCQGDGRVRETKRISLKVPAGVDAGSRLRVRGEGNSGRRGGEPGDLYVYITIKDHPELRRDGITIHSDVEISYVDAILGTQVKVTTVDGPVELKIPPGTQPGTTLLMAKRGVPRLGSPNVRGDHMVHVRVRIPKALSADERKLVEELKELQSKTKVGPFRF
UniProt Q39603: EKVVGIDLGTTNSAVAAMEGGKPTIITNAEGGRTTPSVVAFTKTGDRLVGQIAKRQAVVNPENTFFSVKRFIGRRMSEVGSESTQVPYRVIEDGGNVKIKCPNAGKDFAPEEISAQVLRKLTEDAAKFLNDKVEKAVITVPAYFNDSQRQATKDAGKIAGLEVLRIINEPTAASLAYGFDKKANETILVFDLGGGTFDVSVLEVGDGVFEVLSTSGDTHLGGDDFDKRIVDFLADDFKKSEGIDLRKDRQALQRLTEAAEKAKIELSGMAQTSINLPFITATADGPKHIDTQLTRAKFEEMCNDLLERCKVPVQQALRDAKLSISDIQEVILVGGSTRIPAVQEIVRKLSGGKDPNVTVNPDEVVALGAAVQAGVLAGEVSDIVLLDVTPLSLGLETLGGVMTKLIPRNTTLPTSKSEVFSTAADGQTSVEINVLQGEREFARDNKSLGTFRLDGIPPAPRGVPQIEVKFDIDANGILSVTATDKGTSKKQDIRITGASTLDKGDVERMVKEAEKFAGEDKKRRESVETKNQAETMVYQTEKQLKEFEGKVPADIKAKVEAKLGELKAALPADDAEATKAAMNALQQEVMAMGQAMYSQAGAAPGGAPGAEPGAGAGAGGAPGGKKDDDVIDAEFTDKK
UniProt Q6PSL5: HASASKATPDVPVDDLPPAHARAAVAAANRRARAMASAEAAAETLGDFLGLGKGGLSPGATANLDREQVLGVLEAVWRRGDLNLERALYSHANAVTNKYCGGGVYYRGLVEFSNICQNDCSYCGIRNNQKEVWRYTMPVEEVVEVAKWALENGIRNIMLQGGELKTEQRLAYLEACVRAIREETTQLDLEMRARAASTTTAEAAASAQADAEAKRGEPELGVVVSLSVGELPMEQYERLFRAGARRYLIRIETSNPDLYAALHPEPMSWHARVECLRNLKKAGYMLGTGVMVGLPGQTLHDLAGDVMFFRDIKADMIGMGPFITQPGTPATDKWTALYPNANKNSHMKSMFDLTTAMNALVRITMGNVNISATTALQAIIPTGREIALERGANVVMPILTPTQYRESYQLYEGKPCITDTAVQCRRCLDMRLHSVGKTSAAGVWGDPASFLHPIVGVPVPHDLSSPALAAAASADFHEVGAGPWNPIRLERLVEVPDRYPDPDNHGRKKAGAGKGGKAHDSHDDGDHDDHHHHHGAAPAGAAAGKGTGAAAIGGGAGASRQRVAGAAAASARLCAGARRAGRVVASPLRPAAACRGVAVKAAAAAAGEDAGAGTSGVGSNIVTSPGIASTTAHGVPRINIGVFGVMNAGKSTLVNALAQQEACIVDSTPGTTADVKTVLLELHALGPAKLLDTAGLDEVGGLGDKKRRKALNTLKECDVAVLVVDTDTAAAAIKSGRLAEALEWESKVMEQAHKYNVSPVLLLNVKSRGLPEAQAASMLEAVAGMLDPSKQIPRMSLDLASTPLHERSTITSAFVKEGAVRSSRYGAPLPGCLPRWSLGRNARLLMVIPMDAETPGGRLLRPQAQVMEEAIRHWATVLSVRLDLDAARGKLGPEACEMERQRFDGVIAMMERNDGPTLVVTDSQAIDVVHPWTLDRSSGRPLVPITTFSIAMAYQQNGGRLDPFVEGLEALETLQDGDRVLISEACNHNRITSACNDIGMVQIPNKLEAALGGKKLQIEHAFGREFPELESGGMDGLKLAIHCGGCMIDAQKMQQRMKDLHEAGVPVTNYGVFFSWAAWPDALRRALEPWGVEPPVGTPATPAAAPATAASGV
UniProt Q7X8Q2: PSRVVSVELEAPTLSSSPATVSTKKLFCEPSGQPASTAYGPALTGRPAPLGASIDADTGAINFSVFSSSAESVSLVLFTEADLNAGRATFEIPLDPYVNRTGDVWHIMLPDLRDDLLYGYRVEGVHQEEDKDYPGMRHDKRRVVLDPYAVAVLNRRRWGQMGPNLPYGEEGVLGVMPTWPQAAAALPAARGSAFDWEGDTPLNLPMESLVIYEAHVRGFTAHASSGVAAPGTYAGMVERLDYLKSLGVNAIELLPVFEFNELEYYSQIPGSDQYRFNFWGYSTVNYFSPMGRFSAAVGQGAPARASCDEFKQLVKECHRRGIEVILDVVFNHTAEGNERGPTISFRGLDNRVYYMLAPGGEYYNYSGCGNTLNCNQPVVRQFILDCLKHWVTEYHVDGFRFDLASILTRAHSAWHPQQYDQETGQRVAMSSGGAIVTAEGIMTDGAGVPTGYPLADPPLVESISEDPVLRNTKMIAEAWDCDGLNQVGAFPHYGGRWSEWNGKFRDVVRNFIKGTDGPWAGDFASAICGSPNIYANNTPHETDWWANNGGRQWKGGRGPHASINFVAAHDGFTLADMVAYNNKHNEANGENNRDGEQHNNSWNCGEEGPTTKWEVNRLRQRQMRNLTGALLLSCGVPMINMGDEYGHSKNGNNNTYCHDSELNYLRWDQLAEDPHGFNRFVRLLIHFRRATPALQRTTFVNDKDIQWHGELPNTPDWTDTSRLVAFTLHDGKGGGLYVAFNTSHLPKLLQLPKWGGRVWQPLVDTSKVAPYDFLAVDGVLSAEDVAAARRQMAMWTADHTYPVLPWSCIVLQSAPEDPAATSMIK
UniProt Q7PCJ6: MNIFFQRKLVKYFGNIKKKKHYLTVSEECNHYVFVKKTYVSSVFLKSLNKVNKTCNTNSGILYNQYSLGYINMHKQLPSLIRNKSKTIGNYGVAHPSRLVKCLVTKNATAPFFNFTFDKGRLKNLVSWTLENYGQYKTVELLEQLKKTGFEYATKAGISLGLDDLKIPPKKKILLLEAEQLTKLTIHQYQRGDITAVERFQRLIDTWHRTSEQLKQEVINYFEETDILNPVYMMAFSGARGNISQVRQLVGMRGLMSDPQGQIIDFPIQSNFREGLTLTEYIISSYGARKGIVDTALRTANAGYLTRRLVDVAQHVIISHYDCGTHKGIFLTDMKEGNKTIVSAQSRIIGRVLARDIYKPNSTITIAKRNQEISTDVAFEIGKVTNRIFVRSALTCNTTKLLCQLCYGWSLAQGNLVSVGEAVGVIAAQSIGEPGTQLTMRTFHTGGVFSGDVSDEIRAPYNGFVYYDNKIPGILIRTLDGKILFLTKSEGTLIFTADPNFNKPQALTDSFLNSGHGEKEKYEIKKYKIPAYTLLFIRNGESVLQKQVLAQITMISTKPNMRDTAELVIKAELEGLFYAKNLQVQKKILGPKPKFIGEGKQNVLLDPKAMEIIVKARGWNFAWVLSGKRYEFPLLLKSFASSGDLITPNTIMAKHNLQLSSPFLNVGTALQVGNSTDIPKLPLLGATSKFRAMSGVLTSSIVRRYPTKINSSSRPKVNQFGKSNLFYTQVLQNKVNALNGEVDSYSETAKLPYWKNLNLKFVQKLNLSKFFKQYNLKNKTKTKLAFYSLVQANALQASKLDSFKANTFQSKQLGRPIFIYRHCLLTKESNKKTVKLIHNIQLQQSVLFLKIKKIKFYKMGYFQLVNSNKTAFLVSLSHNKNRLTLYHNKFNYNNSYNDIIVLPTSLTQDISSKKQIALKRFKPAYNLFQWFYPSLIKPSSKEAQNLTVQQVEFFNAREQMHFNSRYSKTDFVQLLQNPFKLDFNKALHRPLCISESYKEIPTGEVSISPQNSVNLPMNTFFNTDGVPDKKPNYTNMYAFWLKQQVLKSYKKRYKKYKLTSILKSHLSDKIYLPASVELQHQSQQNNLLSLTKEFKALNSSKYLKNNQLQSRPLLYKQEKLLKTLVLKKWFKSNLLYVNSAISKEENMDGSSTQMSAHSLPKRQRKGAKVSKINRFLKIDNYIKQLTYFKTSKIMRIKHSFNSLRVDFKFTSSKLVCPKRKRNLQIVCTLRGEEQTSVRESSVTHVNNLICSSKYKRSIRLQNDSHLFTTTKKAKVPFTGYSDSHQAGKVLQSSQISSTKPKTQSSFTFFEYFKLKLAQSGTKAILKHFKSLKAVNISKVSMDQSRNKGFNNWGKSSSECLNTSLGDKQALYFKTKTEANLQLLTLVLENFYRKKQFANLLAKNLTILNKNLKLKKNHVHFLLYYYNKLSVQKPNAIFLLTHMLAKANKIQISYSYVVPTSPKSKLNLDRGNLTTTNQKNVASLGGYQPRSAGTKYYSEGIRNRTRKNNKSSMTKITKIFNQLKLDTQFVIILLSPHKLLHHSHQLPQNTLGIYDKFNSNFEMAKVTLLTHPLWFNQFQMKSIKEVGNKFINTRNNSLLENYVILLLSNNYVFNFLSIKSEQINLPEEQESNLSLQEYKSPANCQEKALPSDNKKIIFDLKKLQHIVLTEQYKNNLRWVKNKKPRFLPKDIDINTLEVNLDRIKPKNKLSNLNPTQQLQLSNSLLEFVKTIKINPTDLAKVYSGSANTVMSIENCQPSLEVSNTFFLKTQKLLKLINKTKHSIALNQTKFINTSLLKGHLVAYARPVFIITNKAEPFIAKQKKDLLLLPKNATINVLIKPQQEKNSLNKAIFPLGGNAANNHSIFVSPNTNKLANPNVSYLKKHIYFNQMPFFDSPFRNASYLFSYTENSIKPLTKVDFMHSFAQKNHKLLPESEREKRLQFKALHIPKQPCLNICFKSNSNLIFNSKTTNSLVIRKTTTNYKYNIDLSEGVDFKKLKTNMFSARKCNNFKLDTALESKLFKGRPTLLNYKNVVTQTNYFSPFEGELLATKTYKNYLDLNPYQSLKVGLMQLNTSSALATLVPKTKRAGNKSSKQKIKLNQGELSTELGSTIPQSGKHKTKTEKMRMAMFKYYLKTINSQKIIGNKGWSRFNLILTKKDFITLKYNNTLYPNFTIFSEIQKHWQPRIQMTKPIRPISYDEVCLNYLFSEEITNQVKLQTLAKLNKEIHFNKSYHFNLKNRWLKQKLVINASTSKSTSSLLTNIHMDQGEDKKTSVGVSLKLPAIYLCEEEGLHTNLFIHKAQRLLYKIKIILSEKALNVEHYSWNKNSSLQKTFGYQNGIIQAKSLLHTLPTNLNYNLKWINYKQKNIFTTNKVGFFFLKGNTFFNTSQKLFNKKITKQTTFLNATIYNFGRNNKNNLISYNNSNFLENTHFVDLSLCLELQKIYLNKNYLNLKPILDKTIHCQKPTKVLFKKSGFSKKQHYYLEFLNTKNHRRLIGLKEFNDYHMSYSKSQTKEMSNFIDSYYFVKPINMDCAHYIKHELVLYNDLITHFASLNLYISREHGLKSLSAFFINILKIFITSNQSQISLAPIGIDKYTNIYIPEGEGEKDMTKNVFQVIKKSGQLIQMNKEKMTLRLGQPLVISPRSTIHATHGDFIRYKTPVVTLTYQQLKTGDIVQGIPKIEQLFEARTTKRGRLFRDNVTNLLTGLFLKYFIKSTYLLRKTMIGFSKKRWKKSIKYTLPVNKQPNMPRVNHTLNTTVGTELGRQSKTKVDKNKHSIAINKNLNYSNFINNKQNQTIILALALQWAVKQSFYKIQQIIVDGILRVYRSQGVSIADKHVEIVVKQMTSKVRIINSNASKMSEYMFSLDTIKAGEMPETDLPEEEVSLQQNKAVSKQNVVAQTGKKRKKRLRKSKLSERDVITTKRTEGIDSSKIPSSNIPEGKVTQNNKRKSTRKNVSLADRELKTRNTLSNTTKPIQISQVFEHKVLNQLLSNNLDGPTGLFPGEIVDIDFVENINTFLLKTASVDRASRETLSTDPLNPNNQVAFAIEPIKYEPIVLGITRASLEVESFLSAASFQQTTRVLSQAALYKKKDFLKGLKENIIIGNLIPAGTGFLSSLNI
UniProt Q6VPQ2: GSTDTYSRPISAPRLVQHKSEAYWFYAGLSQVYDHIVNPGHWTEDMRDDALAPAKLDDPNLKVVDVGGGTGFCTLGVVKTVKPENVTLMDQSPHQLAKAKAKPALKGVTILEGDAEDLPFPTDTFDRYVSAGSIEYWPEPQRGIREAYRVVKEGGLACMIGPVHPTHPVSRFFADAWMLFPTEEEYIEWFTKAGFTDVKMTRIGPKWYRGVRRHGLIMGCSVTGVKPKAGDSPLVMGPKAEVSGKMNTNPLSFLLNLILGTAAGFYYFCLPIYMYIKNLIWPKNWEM

Row | Substance | binding
1 | CGL38/LTD | no binding (only control conditions (25°C, no heat))
2 | CGL59/Y3IP1 | no binding (only control conditions (25°C, no heat))
3 | ELIP1-like | no binding (only control conditions (25°C, no heat))
4 | ELIP2-like | no binding (only control conditions (25°C, no heat))

Each substance was assayed against T1, triple HA-tagged uL5c (chloroplast ribosomal protein uL5c) (Chlamydomonas reinhardtii) (assay: affinity purification with mass spectrometry; triple-HA-tagged uL5c (chloroplast ribosomes) as bait; cells cross-linked in vivo with 0.37% formaldehyde for 10 min; cells at 25°C (control) or 15 min / 180 min at 40°C; enrichment over untagged control (one-sided t-test, FDR < 0.05, S0 = 1) in at least one condition).

Row | binding | Substance
5 | binds | 4-Hydroxy-tetrahydrodipicolinate reductase Cre14.g627850
6 | binds | AAT2
7 | binds | AMA3
8 | binds | APX1 (from UniProt O49822)
9 | binds | Acclimation of Photosynthesis to the environment 1 (APE1)
10 | binds | Acylaminoacyl-peptidase Cre07.g313122
11 | binds | Aldose 1-epimerase Cre05.g234651
12 | binds | ArfB
13 | binds | BCC2
14 | binds | CCB4
15 | binds | CDJ1 (from UniProt Q66YD3)
16 | binds | CGE1
17 | binds | CGL27
18 | binds | CGL38/LTD
19 | binds | CGL59/Y3IP1
20 | binds | CGL102/HCF244
21 | binds | CGLD8/PAB
22 | binds | CHLI1
23 | binds | CHLI2
24 | binds | CPKR
25 | binds | CPLD20
26 | binds | CPLD42
27 | binds | CPN11

Row | binding | Substance
28 | binds | CPN20
29 | binds | CPN23
30 | binds | CPN60B1
31 | binds | CPN60B2
32 | binds | CYP97C3
33 | binds | Conserved in the Green Lineage 86 (CGL86)
34 | binds | DVR1
35 | binds | DXR1
36 | binds | ELIP1-like
37 | binds | ELIP2-like
38 | binds | FAD dependent oxidoreductase, photosynthesis Cre17.g744997
39 | binds | FAD/NAD(P)-binding oxidoreductase Cre01.g005950
40 | binds | FLAV
41 | binds | FTRB
42 | binds | FTSZ1
43 | binds | FTSZ2
44 | binds | Ferredoxin/thioredoxin reductase subunit A Cre16.g687294
45 | binds | Flavin reductase Cre06.g300700
46 | binds | GAT1
47 | binds | GET3B
48 | binds | GLN3
49 | binds | GUN4
50 | binds | GWD2

Row | binding | Substance
51 | binds | Glucose-6-phosphate 1-epimerase Cre16.g677450
52 | binds | Glutamine amidotransferase-like protein Cre01.g056331
53 | binds | Glutathione S-transferase Cre01.g044700
54 | binds | Glycerol-3-phosphate acyltransferase Cre02.g143000
55 | binds | Glyoxylate/succinic semialdehyde reductase Cre06.g278148
56 | binds | HCAR
57 | binds | HEL45
58 | binds | HEL62
59 | binds | HEM2
60 | binds | HRB/C-type RNA helicase Cre01.g024251
61 | binds | HSP22E
62 | binds | HSP70B (from UniProt Q39603)
63 | binds | HYDEF (from UniProt Q6PSL5)
64 | binds | ISA1 (from UniProt Q7X8Q2)
65 | binds | ISA3
66 | binds | LHCA9
67 | binds | MDH5
68 | binds | MSH7
69 | binds | Methionyl tRNA synthase Cre08.g364650
70 | binds | NTR4
71 | binds | OHP2
72 | binds | OPR2
73 | binds | PCC1

Row | binding | Substance
74 | binds | PDS1
75 | binds | POR1
76 | binds | PPR protein Cre14.g611950
77 | binds | PRX5
78 | binds | PRX6
79 | binds | Peptidase Cre02.g083065
80 | binds | Phosphatase Cre06.g284650
81 | binds | Phosphatase Cre08.g365632
82 | binds | Pseudoglucan protein Cre03.g183300
83 | binds | Putative fructokinase Cre09.g387050
84 | binds | Pyrophosphatase Cre10.g424100
85 | binds | RAF2
86 | binds | RBD1
87 | binds | RBGA
88 | binds | RFK2
89 | binds | RH39
90 | binds | RMT1
91 | binds | RNA helicase Cre03.g213649
92 | binds | RPI1
93 | binds | RPOC2 (from UniProt Q7PCJ6 1-3120)
94 | binds | Rhodanese-like protein Cre01.g003550
95 | binds | Riboflavin biosynthesis protein Cre14.g620350
96 | binds | Rieske protein, Ferredoxin related Cre02.g093650

Row | binding | Substance
97 | binds | SBE1
98 | binds | SBP1
99 | binds | SHK5
100 | binds | SSS1
101 | binds | SSS2
102 | binds | Stress response protein Cre15.g638400
103 | binds | TAL2
104 | binds | TEF4
105 | binds | TEF5
106 | binds | THF1
107 | binds | TPIC1
108 | binds | TSF2
109 | binds | Thioredoxin Cre17.g715500
110 | binds | Thiosulfate sulfurtransferase Cre13.g573250
111 | binds | Thylakoid organization protein Cre14.g616600
112 | binds | VTE3 (from UniProt Q6VPQ2)
113 | binds | ZDS1
114 | binds | ZEP1 (from UniProt A0ACM8PZH8)
115 | binds | moxR ATPase Cre13.g603225
116 | binds | rRNA Methyltransferase Cre17.g722250
117 | binds | trigger factor chaperone, TIG1

Row | Substance | binding
118 | CRD1 | binds
119 | CTH1 | binds
